Inconclusive results, whose numbers are uncertain, are shown with a selection of clear calls. For some assays here: A potency beside an inconclusive call is a rough fit, not a confirmed value. Calls of active or inactive are those of the source. Calls follow the shape of the dose curve; as a rule, active = well fitted curve in the direction sought with a large enough effect; inconclusive = small, poorly fitted or top-dose-only effect, or another doubt; inactive = no such curve, though single readings can be large; an effect the other way counts as inactive or inconclusive.
Assays:
[1] = qHTS of pediatric cancer cell lines to identify multiple opportunities for drug repurposing: Confirmatory screen for A673 cells (AID 1347110); settings: A673 Ewing sarcoma cell viability; series mostly up to 45.9 µM;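 also: cells exposed to compound for 48 h before the viability read; nearly all actives have a fitted effect of over 65% in size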
In short: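 A673 cells at 500-1,000 cells/well were dosed 5 h after plating, in dilution series up to 46 uM final; primary runs used 8 or 11 points and confirmatory runs used 11 points. Viability was read by CellTiter-Glo luminescence after 48 h, against DMSO and 2.3 uM bortezomib controls.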

[2] = qHTS of pediatric cancer cell lines to identify multiple opportunities for drug repurposing: Confirmatory screen for LAN-5 cells (AID 1347113); settings: LAN-5 neuroblastoma cell viability; activity change, negative = cytotoxicity: at 45.9 µM (top of the series); series mostly up to 45.9 µM; also: nearly all actives have a fitted effect of over 65% in size
In short: (§1)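 Cells (500-1,000/well) rested 5 h, then received compounds for 48 h; metabolically active cells were measured by CellTiter-Glo luminescence. Final concentrations spanned up to 46 µM (MIPE, 11-point) or 0.59 nM-46 µM (NPC, 8-point) in primary screens, 11-point in follow-ups.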

[3] = qHTS of pediatric cancer cell lines to identify multiple opportunities for drug repurposing: Confirmatory screen for SJ-GBM2 cells (AID 1347116); settings: SJ-GBM2 glioblastoma cells, viability; series mostly up to 45.9 µM; also: nearly all actives have a fitted effect of over 60% in size
In short: (§2)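 Viability measured as metabolically active cells via CellTiter-Glo luminescence following 48 hours of compound exposure, 11-point dilutions in confirmatory testing. 500-1,000 cells/well plated 5 hours before dosing; controls were DMSO and 2.3 µM bortezomib.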

[4] = qHTS of pediatric cancer cell lines to identify multiple opportunities for drug repurposing: Confirmatory screen for BT-37 cells (AID 1347117); settings: BT-37 pediatric cancer cells, viability; series mostly up to 45.9 µM; also: nearly all actives have a fitted effect of over 55% in size
In short: as §1

[5] = qHTS of pediatric cancer cell lines to identify multiple opportunities for drug repurposing: Confirmatory screen for TC32 cells (AID 1347118); settings: TC32 Ewing sarcoma cells viability qHTS; series mostly up to 45.9 µM;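 also: cells exposed to compound for 48 h before the read; nearly all actives have a fitted effect of over 65% in size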
In short: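 qHTS, TC32, 48 h drug treatment, CellTiter-Glo luminescence as a proxy for metabolically active cells; primary top concentration 46 µM (MIPE 11-pt, NPC 8-pt); confirmatory 11-pt.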

[6] = qHTS of pediatric cancer cell lines to identify multiple opportunities for drug repurposing: Confirmatory screen for MG 63 (6-TG R) cells (AID 1347119); settings: MG-63 (6-TG resistant) osteosarcoma viability; activity change, negative = cytotoxicity: at 45.9 µM (top of the series); also: nearly all actives have a fitted effect of over 55% in size
In short: as §1

[7] = qHTS of pediatric cancer cell lines to identify multiple opportunities for drug repurposing: Confirmatory screen for BT-12 cells (AID 1347112); settings: BT-12 rhabdoid tumor cells, viability; series mostly up to 45.9 µM;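 also: viability read after 48 h of compound exposure; nearly all actives have a fitted effect of over 55% in size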
In short: as §1

[8] = qHTS of pediatric cancer cell lines to identify multiple opportunities for drug repurposing: Confirmatory screen for SK-N-MC cells (AID 1347111); settings: SK-N-MC cell viability; series mostly up to 45.9 µM;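 also: cells exposed to compound for 48 h before the readout; nearly all actives have a fitted effect of over 70% in size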
In short: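 Seed 500-1,000 cells/well; rest 5 h at 37 degrees C. Pin-transfer compounds, 11-point titration. Incubate 48 h. Add CellTiter-Glo, 15 min RT, read luminescence.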

[9] = qHTS of pediatric cancer cell lines to identify multiple opportunities for drug repurposing: Confirmatory screen for DAOY cells (AID 1347114); settings: DAOY medulloblastoma cells viability, cytotoxicity qHTS; series mostly up to 45.9 µM; also: nearly all actives have a fitted effect of over 65% in size
In short: as §2

[10] = qHTS of pediatric cancer cell lines to identify multiple opportunities for drug repurposing: Confirmatory screen for NB-EBc1 cells (AID 1347115); settings: NB-EBc1 neuroblastoma cells, viability (cytotoxicity); activity change, negative = cytotoxic: at 45.9 µM (top of the series);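 also: cells exposed to compound for 48 h before the viability read; nearly all actives have a fitted effect of over 45% in size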
In short: as §1
Potency is read from the fitted curve at half-maximal effect.

For `COc1cc2ncnc(Nc3cc(Br)c(O)c(Br)c3)c2cc1OC`, the Potency [1] was inconclusive: 36.9 µM [cytotoxic, single point], the Potency [2] was inconclusive: 32.9 µM [cytotoxic, single point] and the Potency [3] was “inactive”. For the same compound, the Potency [4] was inconclusive: 18.5 µM [cytotoxic, partial curve], the Potency [5] was inconclusive: 29.3 µM [cytotoxic, single point] and the Potency [6] was “inactive”.
For `O=c1[nH]nc(OCCCc2ccc(Cl)cc2)c(NCc2cccnc2)c1Br`, the Potency [1] was inconclusive: 9.27 µM [cytotoxic, partial curve, poor fit], the Potency [7] was inconclusive: 11.7 µM [cytotoxic, partial curve] and the Potency [2] was inconclusive: 36.9 µM [cytotoxic, single point]. The Potency [3] was inconclusive: 9.27 µM [cytotoxic, full curve], the Potency [4] was inconclusive: 14.7 µM [cytotoxic, partial curve] and the Potency [5] was inconclusive: 13.1 µM [cytotoxic, partial curve].
For `Cc1cccc(N(C)C(=S)Oc2ccc3ccccc3c2)c1`, the Potency [8] was inconclusive: 36.9 µM [cytotoxic, single point], the Potency [7] was inconclusive: 36.9 µM [cytotoxic, partial curve, poor fit] and the Potency [9] was inconclusive: 29.3 µM [cytotoxic, single point]. The Potency [10] was active: 18.5 µM, the Potency [3] was “inactive” and the Potency [4] was “inactive”. For the same compound, the Potency [5] was inconclusive: 36.9 µM [cytotoxic, single point] and the Potency [6] was inconclusive: 36.9 µM [cytotoxic, single point].
